According to article PMC8910673:
These are yes or no findings as the source states them, for the method shown. Binding seen in cells or lysates may run through a third protein. Some results given as binding are weak or reduced against the parent protein; the word gives no strength. Sequences can lack the tags named with a protein.

T1: GFP-MAP3Kε1 (Arabidopsis thaliana) (UniProt Q9LJD8)
T1 sequence: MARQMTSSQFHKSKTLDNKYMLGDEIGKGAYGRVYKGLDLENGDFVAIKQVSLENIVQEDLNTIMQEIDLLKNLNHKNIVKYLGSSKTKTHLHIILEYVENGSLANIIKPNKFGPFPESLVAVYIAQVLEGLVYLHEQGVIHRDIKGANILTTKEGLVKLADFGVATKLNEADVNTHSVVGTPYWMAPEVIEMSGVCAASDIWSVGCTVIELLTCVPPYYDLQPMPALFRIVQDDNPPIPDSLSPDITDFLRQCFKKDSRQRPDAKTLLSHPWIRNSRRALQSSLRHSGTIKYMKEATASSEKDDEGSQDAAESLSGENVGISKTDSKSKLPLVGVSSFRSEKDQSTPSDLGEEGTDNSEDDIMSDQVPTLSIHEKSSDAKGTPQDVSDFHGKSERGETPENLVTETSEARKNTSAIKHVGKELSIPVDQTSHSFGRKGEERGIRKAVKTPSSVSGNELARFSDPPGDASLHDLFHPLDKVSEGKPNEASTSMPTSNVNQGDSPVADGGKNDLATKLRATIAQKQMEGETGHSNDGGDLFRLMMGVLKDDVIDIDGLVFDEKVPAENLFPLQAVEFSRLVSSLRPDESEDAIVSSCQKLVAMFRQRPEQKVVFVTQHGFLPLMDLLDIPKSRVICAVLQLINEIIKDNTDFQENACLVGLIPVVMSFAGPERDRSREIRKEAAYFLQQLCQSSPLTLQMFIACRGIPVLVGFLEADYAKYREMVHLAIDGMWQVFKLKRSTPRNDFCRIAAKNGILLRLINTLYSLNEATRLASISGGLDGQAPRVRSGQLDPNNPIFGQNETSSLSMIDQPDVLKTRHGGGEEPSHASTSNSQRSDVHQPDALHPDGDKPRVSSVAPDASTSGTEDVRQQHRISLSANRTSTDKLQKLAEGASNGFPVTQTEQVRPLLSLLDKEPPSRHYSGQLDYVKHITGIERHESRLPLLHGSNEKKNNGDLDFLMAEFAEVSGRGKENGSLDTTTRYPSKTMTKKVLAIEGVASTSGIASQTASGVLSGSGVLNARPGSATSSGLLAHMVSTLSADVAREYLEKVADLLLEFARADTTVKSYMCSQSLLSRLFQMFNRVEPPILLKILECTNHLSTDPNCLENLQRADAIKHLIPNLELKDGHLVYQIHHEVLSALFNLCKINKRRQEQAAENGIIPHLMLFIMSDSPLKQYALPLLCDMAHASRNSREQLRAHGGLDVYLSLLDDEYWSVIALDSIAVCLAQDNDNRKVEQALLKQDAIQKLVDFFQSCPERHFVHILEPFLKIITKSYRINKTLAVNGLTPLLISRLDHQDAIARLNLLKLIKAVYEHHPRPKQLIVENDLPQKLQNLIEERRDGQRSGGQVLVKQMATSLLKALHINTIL

T2: GFP-MAP3Kε2 (Arabidopsis thaliana) (UniProt Q9SFB6)
T2 sequence: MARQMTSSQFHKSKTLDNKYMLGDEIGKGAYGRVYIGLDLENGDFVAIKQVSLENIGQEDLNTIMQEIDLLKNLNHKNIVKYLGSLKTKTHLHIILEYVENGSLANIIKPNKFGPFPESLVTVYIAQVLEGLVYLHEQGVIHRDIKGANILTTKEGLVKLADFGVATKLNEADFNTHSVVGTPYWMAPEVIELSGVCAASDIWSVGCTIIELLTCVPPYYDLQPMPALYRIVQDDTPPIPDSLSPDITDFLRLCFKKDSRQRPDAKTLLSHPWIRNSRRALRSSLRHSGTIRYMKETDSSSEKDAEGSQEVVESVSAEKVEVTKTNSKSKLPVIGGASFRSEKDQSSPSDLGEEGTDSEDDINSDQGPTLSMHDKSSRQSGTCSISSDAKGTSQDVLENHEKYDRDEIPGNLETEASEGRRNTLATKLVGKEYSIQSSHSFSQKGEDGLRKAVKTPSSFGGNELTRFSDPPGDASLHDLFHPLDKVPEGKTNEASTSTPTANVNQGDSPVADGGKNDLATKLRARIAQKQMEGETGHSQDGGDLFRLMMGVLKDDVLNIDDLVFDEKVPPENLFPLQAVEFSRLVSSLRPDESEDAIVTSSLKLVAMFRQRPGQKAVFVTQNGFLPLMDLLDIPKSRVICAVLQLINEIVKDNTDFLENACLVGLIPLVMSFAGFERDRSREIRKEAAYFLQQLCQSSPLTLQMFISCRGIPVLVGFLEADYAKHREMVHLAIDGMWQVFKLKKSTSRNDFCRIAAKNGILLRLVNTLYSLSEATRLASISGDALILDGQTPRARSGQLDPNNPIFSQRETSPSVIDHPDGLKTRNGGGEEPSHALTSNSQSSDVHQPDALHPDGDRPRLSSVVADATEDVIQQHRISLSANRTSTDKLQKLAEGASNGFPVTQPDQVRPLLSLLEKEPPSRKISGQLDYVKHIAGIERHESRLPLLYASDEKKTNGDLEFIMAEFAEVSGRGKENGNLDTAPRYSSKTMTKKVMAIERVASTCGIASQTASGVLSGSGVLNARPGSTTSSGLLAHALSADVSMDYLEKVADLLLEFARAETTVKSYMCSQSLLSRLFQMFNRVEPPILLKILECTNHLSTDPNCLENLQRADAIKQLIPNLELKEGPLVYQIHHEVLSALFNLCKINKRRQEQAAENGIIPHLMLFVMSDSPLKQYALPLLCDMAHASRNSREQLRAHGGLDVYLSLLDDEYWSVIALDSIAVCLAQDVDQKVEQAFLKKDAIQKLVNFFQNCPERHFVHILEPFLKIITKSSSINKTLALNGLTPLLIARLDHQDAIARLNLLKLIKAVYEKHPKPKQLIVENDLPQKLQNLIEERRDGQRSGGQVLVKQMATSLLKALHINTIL


Experiments:
[1] = target: T1, GFP-MAP3Kε1 (Arabidopsis thaliana); assay: co-IP; total protein extracts of co-transfected N. benthamiana leaves; anti-GFP agarose beads, 4 °C, 2 h; IP buffer 50 mM HEPES pH 7.4, 50 mM NaCl, 0.1% Triton X-100; blots with anti-GFP and anti-mcherry
[2] = target: T2, GFP-MAP3Kε2 (Arabidopsis thaliana); assay: as above

binding [1]	binding [2]	Binder
binds	binds	MOB1A-mcherry (protein, UniProt Q9FHI1 1-215) MSLFGLGRNQKTFRPKKSAPSGSKGAQLRKHIDATLGSGNLREAVRLPPGEDANEWLAVNTVDFFNQVNLLYGTLTEFCTPDNCPTMTAGPKYEYRWADGVQIKKPIEVSAPKYVEYLMDWIETQLDDETLFPQRLGAPFPQNFKDVVKTIFKRLFRVYAHIYHSHFQKIVSLKEEAHLNTCFKHFILFTHEFGLIDKKELAPLQELIESIISPY
binds	binds	MOB1B-mcherry (protein, UniProt Q8GYX0 1-215) MSLFGLGRNQKTFRPKKSAPSGTKGAELRKHIDATLGSGNLREAVKLPPGEDLNEWLAVNTVDFFNQVNLLFGTLTEFCTPENCSTMTAGPKYEYRWADGVQIKKPIEVSAPKYVEYLMDWIETQLDDETIFPQKLGAAFPPNFKEVVKTIFKRLFRVYAHIYHSHFQKIVSLKEEAHLNTCFKHFILFTHEFVLIDKKELAPLQELIESIIAPY
